The list is a part of this screen's results and no random one: it gathers tests that were run many times, whatever their T/C, doses with no T/C, and many T/C values between a quarter and a half above the control. Further doses and runs are listed elsewhere. T/C gives the treated animals as a percentage of the vehicle group. Some doses have a count of surviving animals in place of a T/C: the source files T/C as zero there, which appears to mark a toxic dose or a test without result, not a measured value. Some doses without a T/C left all or most animals alive at the check, yet need not have been tolerated: survival well below the control is almost never listed, so the zero probably covers shortened survival too. Counts of survivors are from the toxicity check (mostly the fifth day) where no day follows; animals may have died later. Schedule codes are those of the source, taken here to give the interval after Q, in days (D) or hours (H), and the number of doses after X. For survival time, this PubChem deposit counts one and a half times the control or more as active, and values a quarter to a half above the control carry no call in these data; other NCI protocols may use other cut-offs. Some entries hold several experiments; their values stand side by side, smallest first. Some T/C values carry the count of animals alive at the toxicity check (mostly the fifth day); without a count, all were alive then.
System: P388 leukemia ip, CD2F1 mice, survival T/C
Experiment: NCI In Vivo Anticancer Drug Screen. Data for tumor model P388 Leukemia (intraperitoneal) in CD2F1 (CDF1) mice
Conditions: T/C endpoint: median survival time, higher T/C = longer survival

Structure (SMILES): C1[Se]CC12C[Se]C2
- survivor count (dose: 40.0 mg/kg/injection, schedule: Q01DX009 (ip), vehicle: saline with Tween-80): 5 of 6
- survivor count (dose: 80.0 mg/kg/injection, schedule: Q01DX009 (ip), vehicle: saline with Tween-80): 0 of 6

Structure (SMILES): Cc1cccc2c(OCC3CO3)cc(=O)[nH]c12 (stereo not given)
- T/C (dose: 100.0 mg/kg/injection, schedule: Q01DX005 (ip), vehicle: saline with Tween-80, evaluated on day 24): 133 % of control
- T/C (dose: 100.0 mg/kg/injection, schedule: Q01DX005 (ip), vehicle: saline with Tween-80, evaluated on day 30): 130 % of control
- T/C (dose: 200.0 mg/kg/injection, schedule: Q01DX005 (ip), vehicle: saline with Tween-80, evaluated on day 24): 130 % of control [4 of 6 alive]
- T/C (dose: 200.0 mg/kg/injection, schedule: Q01DX005 (ip), vehicle: saline with Tween-80, evaluated on day 30): 133 % of control
- survivor count (dose: 400.0 mg/kg/injection, schedule: Q01DX005 (ip), vehicle: saline with Tween-80): 2 of 6

Structure (SMILES): O=C(Nc1ccc(Cl)c(Cl)c1)Nc1ccc(Cl)c(Cl)c1 (tested in a mixture with another compound)
- survivor count (dose: 25.0 mg/kg/injection, schedule: Q01DX009 (ip), vehicle: saline with Tween-80): 6 of 6

Structure (SMILES): Nc1cc(Cl)c2[nH]cnc2n1
- T/C (dose: 100.0 mg/kg/injection, schedule: Q01DX005 (ip), vehicle: distilled water + Tween-80): 135 % of control

Structure (SMILES): COc1c(C)cc(C)c(CCl)c1-c1c(CCl)c(C)cc(C)c1OC
- survivor count (dose: 400.0 mg/kg/injection, schedule: Q01DX001 (ip), vehicle: Klucel (hydroxypropylcellulose) (HPC)): 5 of 6

Structure (SMILES): NC(=O)c1ncn2c(=O)n(CCCl)nnc12
- T/C (dose: 6.7 mg/kg/injection, schedule: Q01DX005 (ip), vehicle: Klucel (hydroxypropylcellulose) (HPC), evaluated on day 30): 223 % of control
- T/C (dose: 6.7 mg/kg/injection, schedule: Q01DX005 (ip), vehicle: Klucel (hydroxypropylcellulose) (HPC), evaluated on day 60): 218, 260, 294 % of control
- T/C (dose: 10.0 mg/kg/injection, schedule: Q01DX005 (ip), vehicle: Klucel (hydroxypropylcellulose) (HPC), evaluated on day 30): 294 % of control
- T/C (dose: 10.0 mg/kg/injection, schedule: Q01DX005 (ip), vehicle: Klucel (hydroxypropylcellulose) (HPC), evaluated on day 60): 280, 588, 594 % of control
- T/C (dose: 15.0 mg/kg/injection, schedule: Q01DX005 (ip), vehicle: Klucel (hydroxypropylcellulose) (HPC), evaluated on day 30): 294 % of control
- T/C (dose: 15.0 mg/kg/injection, schedule: Q01DX005 (ip), vehicle: Klucel (hydroxypropylcellulose) (HPC), evaluated on day 60): 220, 582, 588, 594 % of control
- T/C (dose: 22.0 mg/kg/injection, schedule: Q01DX005 (ip), vehicle: Klucel (hydroxypropylcellulose) (HPC), evaluated on day 30): 294 % of control
- T/C (dose: 22.0 mg/kg/injection, schedule: Q01DX005 (ip), vehicle: Klucel (hydroxypropylcellulose) (HPC), evaluated on day 60): 230, 582, 588, 594 % of control
- T/C (dose: 33.0 mg/kg/injection, schedule: Q01DX005 (ip), vehicle: Klucel (hydroxypropylcellulose) (HPC), evaluated on day 30): 294 % of control
- T/C (dose: 33.0 mg/kg/injection, schedule: Q01DX005 (ip), vehicle: Klucel (hydroxypropylcellulose) (HPC), evaluated on day 60): 121, 208, 441, 582 % of control
- survivor count (dose: 50.0 mg/kg/injection, schedule: Q01DX005 (ip), vehicle: Klucel (hydroxypropylcellulose) (HPC)): 9 of 10
- T/C (dose: 50.0 mg/kg/injection, schedule: Q01DX005 (ip), vehicle: saline, evaluated on day 30): 118, 138, 153 % of control
- T/C (dose: 50.0 mg/kg/injection, schedule: Q01DX005 (ip), vehicle: saline, evaluated on day 60): 114 % of control [9 of 10 alive]
- survivor count (dose: 100.0 mg/kg/injection, schedule: Q01DX005 (ip), vehicle: saline): 6 of 6

Structure (SMILES): C1=C(C2=C[P+](c3ccccc3)(c3ccccc3)C=C(c3ccccc3)O2)OC(c2ccccc2)=C[P+]1(c1ccccc1)c1ccccc1
- survivor count (dose: 50.0 mg/kg/injection, schedule: Q01DX005 (ip), vehicle: saline with Tween-80): 0 of 5

Source: PubChem BioAssay AID330 (DTP/NCI, 2004)
